{"sequences": {"note": "Sequences of proteins named here, by UniProt entry; tags and fusion partners are left off. A change or cut given only in a name is not applied to a line headed by its entry.", "UniProt P49756, whole entry": "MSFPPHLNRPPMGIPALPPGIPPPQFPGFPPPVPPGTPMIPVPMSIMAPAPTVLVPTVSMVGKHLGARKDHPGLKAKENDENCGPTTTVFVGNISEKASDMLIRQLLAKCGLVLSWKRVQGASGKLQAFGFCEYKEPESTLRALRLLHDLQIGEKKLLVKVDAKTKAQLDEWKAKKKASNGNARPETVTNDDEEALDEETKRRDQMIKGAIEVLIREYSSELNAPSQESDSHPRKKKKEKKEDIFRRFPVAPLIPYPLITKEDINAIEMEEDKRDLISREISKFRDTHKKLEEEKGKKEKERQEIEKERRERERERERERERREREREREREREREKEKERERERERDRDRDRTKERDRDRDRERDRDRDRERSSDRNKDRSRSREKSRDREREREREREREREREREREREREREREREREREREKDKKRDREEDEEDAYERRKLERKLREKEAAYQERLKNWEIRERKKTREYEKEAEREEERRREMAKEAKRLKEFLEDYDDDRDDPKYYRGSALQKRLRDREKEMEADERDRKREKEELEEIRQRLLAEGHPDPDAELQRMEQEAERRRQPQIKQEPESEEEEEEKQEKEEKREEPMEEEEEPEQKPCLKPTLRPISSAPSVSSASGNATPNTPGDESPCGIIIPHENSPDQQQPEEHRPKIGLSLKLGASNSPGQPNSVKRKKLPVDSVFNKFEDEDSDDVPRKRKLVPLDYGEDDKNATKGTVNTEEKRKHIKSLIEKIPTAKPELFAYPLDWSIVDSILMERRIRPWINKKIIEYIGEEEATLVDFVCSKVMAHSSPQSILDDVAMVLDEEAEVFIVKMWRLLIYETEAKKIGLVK", "UniProt P52298": "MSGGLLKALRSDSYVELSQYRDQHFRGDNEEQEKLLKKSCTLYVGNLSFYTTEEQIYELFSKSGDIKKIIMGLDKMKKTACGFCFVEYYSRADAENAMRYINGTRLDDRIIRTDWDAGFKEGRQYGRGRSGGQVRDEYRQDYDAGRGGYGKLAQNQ", "UniProt P52747": "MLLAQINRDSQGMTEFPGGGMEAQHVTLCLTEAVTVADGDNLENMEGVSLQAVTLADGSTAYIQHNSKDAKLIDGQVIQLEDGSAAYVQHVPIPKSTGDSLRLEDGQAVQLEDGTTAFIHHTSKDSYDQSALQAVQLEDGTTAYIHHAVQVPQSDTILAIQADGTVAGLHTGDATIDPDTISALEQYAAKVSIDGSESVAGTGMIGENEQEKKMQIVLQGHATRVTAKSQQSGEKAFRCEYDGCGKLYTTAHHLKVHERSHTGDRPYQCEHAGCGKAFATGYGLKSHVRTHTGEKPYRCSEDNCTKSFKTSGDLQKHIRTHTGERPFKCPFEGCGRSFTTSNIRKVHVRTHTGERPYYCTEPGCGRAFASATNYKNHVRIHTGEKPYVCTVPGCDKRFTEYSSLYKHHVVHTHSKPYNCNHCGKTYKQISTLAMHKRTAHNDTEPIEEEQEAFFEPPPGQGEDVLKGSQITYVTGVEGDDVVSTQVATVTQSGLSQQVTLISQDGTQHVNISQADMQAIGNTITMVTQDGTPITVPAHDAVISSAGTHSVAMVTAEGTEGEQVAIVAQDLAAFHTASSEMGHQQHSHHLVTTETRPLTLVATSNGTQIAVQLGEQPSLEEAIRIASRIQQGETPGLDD", "UniProt P53621": "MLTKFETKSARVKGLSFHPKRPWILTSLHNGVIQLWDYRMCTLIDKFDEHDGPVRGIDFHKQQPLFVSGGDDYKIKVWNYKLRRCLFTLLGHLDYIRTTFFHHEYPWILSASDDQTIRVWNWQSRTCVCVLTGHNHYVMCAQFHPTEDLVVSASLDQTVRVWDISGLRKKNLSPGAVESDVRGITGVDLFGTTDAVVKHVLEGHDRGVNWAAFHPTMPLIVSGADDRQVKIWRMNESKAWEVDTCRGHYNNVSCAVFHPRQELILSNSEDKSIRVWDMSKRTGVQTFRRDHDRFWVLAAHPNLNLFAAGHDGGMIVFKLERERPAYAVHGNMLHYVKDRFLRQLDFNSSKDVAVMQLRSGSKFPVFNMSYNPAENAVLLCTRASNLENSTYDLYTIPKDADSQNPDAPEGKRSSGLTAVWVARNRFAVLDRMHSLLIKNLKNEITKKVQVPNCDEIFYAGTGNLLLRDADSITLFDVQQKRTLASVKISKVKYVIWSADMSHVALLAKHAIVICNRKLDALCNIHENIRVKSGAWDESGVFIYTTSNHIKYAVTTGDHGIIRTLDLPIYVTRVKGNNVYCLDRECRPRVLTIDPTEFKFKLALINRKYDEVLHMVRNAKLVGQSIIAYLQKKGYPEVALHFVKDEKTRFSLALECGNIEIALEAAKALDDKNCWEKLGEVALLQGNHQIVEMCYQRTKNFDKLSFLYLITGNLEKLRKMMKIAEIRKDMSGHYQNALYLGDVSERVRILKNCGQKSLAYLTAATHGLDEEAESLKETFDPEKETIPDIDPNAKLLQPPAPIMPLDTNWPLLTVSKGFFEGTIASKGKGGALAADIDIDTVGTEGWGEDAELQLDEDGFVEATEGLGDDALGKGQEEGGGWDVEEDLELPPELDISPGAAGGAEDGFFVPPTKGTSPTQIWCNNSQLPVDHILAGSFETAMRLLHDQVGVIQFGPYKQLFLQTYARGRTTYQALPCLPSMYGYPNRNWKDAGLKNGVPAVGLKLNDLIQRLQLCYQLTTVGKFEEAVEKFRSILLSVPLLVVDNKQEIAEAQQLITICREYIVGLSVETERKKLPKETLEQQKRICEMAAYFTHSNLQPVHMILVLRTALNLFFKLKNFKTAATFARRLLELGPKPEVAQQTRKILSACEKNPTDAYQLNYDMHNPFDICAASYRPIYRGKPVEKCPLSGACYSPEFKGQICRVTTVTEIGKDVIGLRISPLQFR", "UniProt P53779": "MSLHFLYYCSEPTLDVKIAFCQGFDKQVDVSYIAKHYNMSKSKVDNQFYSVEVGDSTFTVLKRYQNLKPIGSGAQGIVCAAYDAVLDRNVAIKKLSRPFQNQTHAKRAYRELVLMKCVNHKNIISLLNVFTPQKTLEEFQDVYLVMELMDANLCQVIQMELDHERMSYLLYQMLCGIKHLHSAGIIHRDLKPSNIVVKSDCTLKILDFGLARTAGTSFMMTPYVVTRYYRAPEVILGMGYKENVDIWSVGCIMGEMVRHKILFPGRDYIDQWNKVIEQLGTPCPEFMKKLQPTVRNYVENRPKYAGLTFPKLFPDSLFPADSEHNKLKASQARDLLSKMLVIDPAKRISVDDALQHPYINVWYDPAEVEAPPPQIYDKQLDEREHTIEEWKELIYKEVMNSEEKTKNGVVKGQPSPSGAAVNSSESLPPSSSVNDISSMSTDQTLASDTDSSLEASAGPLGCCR", "UniProt P49790, whole entry": "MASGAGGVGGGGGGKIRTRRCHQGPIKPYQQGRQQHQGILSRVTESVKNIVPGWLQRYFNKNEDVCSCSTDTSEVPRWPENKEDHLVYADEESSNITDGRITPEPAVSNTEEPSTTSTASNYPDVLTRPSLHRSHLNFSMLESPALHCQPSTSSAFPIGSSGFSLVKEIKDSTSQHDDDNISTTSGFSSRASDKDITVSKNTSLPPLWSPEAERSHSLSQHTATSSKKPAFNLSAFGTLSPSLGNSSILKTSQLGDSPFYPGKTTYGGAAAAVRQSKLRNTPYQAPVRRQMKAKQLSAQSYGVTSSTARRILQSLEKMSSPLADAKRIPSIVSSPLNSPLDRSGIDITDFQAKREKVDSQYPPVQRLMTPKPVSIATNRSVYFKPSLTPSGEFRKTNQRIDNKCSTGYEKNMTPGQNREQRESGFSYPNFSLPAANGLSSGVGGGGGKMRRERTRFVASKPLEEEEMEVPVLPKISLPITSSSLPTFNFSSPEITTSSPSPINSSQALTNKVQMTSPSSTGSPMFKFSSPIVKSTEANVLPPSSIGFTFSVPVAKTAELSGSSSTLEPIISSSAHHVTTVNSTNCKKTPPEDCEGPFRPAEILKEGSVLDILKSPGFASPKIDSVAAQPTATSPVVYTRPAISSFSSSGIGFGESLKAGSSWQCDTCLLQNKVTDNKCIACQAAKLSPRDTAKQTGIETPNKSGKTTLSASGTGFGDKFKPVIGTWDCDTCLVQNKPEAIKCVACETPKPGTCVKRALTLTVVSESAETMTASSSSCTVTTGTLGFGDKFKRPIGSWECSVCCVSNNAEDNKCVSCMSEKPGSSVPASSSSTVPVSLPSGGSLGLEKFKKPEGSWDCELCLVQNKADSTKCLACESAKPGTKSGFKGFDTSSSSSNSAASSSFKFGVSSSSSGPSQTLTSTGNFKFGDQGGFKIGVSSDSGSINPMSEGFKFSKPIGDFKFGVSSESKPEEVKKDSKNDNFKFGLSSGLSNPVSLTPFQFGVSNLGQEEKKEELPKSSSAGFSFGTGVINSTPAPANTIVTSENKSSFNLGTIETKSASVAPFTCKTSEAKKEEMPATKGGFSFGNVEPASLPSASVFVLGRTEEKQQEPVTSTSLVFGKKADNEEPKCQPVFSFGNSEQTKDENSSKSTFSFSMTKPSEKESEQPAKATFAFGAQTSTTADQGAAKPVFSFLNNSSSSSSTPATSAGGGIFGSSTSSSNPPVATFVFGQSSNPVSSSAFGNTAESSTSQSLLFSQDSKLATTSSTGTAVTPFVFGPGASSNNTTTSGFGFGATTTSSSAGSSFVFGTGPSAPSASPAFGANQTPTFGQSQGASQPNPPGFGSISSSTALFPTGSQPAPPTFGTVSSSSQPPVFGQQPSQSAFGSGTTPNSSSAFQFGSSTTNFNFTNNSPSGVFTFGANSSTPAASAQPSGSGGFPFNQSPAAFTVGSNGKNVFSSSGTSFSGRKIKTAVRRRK"}, "source": "the supplement of paper PMC12819154", "about": "“High-throughput peptide-centric local stability assay extends protein–ligand identification to membrane proteins, tissues and bacteria” (Nature Structural & Molecular Biology, 2025)", "note": "Some of the results follow. Most values lie at the level of the controls, where differences are scatter."}
{"compound": "CN[C@@H]1C[C@H]2O[C@@](C)([C@@H]1OC)n1c3ccccc3c3c4c(c5c6ccccc6n2c5c31)C(=O)NC4 [staurosporine]", "experiment": "log2 fold change of tryptic peptide abundance, ligand vs vehicle (limited proteolysis) (log2 ratio); higher = more trypsin-susceptible (destabilized)", "settings": "ligand concentration: 20 uM; sample: K562 cleared lysate; digestion: 4 min, 22 C (HT-PELSA RT4min, Orbitrap Astral)"}
{"target": "RBM25 (peptide sequence: KLVPLDYGEDDKNATK, peptide start residue: 711) (UniProt P49756)", "log2 fold change": -0.133}
{"target": "NCBP2 (peptide sequence: DQHFRGDNEEQEK, peptide start residue: 22) (UniProt P52298)", "log2 fold change": -0.204}
{"target": "ZNF143 (peptide sequence: QISTLAMHKR, peptide start residue: 428) (UniProt P52747)", "log2 fold change": 0.63}
{"target": "COPA (peptide sequence: YAVTTGDHGIIR, peptide start residue: 551) (UniProt P53621)", "log2 fold change": 0.235}
{"target": "UniProt P53779 (peptide sequence: VIEQLGTPCPEFMK, peptide start residue: 237)", "log2 fold change": -0.861}
{"target": "NUP153 (peptide sequence: SASVAPFTCKTSEAK, peptide start residue: 1057) (UniProt P49790)", "log2 fold change": -0.211}
